Measurements reported in patent US20210290732A1 (Spitfire Pharma LLC, priority 2020, published 2021).

Assay: peptide made by a vendor (Fmoc solid-phase peptide synthesis; Rink amide resin; DIC/HBT (DIC/Oxyma for lactam formation))
Details: whole synthesis, analytical HPLC/mass spectrometry

PEPTIDE1{H.[XAib].Q.G.T.F.T.S.D.Y.S.K.Y.L.D.E.[XKGlcA].A.A.K.E.F.I.Q.W.L.L.Q.T.[am]}$PEPTIDE1,PEPTIDE1,16:R3-20:R3$$$V2.0
final HPLC purity: 95.22%

Strings that start with PEPTIDE1 are HELM notation: dots part the residues, brackets hold end groups and non-standard residues.
